Experimental data: doi:10.1101/318840
No constants are given. Whether binding was seen depends on the method and setting. In cells and extracts the contact can be indirect. Binding calls can cover weak binding; strength is not graded here.

Protein sequences, listed by entry. Tags and fused reporters are not part of them. Lines headed by an entry give the natural chain unless they say otherwise; changes in a name come on top.
UniProt Q8WXG1: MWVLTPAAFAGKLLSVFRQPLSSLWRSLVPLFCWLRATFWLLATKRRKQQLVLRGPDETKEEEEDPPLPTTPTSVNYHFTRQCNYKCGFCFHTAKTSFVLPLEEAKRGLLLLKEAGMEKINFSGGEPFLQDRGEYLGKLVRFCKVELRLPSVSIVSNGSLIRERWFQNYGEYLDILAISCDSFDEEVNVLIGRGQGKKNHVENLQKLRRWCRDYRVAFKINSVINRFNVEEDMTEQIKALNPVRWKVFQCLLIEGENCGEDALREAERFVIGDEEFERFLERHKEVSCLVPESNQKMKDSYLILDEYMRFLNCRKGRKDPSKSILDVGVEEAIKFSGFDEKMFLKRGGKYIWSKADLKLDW

Molecular target: viperin-Δ3C (human) (UniProt Q8WXG1)
Experiment: co-IP

With “interleukin-1 receptor-associated kinase-1 (IRAK1), N-terminal Myc tag (from UniProt P51617-1 1-712) (enzyme)” the binding was “binds”.
